From PubChem BioAssay AID540276 (National Center for Advancing Translational Sciences (NCATS), 2011)
Among all 300,000 compounds or so, about 5,400 (1.8%) were called active. Inconclusive results, whose numbers are uncertain, are shown with a selection of clear calls. Calls follow the shape of the full dose curve; tested in HEK293 cells. Potencies of inconclusive entries are doubtful fits and often do not repeat.
Potency is read from the fitted curve at half-maximal effect.

Assay: qHTS for inhibitors of binding or entry into cells for Marburg Virus
Conditions: Marburg virus pseudotyped entry inhibition, cell reporter; series mostly up to 37.8 µM
For `CCNS(=O)(=O)c1ccc2c3c(cccc13)C(=O)N2`, the Potency was inconclusive: 18.3 µM [inhibitor, single point].
With `CCOc1ccc(OCC)c(NC(=O)CN(C)S(=O)(=O)c2ccc3nc(C)sc3c2)c1` the Potency was “inactive”.
In the case of `CN(C)CCCN(C(=O)c1ccc(Br)s1)c1nc2cc3c(cc2s1)OCCO3`, the Potency is reported as inconclusive: 6.31 µM [activator, single point].
In the case of `Cc1nc(SCCOc2ccc(F)cc2)c2ccccc2n1`, the Potency is reported as “inactive”.
For `Cc1cccc(/C=C(\C(=O)C(=O)O)c2ccc3ccccc3n2)c1`, the Potency was inconclusive: 4.47 µM [activator, full curve].
For `O=[N+]([O-])c1ccc2nc(-c3ccccc3)cc(-c3ccccc3)c2c1`, the Potency was inconclusive: 29.1 µM [activator, single point].
For `Cc1ccc(C(=O)Oc2cccc(-n3cnnn3)c2)cc1`, the Potency was “inactive”.
With `N#CC(=C1SC=CS1)c1nc(-c2ccccc2)cs1` the Potency was inconclusive: 2.82 µM [activator, full curve].
With `O=C(N/N=C/c1cccs1)[C@H]1C[C@@H]1c1ccccc1` the Potency was “inactive”.
With `COc1nnc(-c2ccc(N3CCCCC3)c(NC(=O)c3ccccc3)c2)c2ccccc12` the Potency was inconclusive: 35.5 µM [inhibitor, single point].
For `Cc1ccc(N=c2sc(C)c(C)n2C)cc1`, the Potency was inconclusive: 0.112 µM [activator, full curve, poor fit].
In the case of `CCOC(=O)c1ccc(/C=C2/C=C(c3ccccc3)N(c3ccc(Cl)c(C(=O)O)c3)C2=O)cc1`, the Potency is reported as inconclusive: 0.0891 µM [inhibitor, full curve, poor fit].
For `CN(Cc1ccccc1)S(=O)(=O)c1ccc(NS(C)(=O)=O)cc1`, the Potency was inconclusive: 5.17 µM [activator, full curve, poor fit].
For `O=C(CCCCCN1C(=O)c2ccccc2C1=O)NC1CCCC1`, the Potency was inconclusive: 5.62 µM [activator, single point].
With `CCOc1ccc2nc(N3CCC(C(=O)Nc4ccc(Br)cc4F)CC3)sc2c1` the Potency was inconclusive: 3.16 µM [activator, partial curve, poor fit].
For `CCOC(=O)CSc1nnc(-c2ccc(OC)cc2OC)o1`, the Potency was inconclusive: 29.1 µM [activator, partial curve, poor fit].
For `CC(C)(C)C(=O)OCc1nc(-c2ccc(F)cc2)cs1`, the Potency was inconclusive: 35.5 µM [activator, single point].
For `COc1ccc(S(=O)(=O)N/N=C\c2ccccc2F)cc1`, the Potency was inconclusive: 35.5 µM [inhibitor, partial curve, poor fit].
For `COc1cccc2c1OC1(CCN(C(C)C)CC1)N1N=C(c3cccnc3)CC21` (configuration not stated), the Potency was “inactive”.
With `CNc1sc(C(=O)c2ccc(F)cc2)c(N)c1-c1nc2ccccc2s1` the Potency was “inactive”.
For `Cc1ccc(CNc2nc(C)nc3sc4c(c23)CCC4)cc1`, the Potency was inconclusive: 29.1 µM [inhibitor, partial curve, poor fit].
With `O=C(NNC(=S)NC(=O)c1cccs1)c1ccc(NC(=O)c2ccccc2)cc1` the Potency was inconclusive: 25.1 µM [inhibitor, single point].
For `COc1cc(C(=O)NCC(c2cccs2)N2CCc3ccccc32)cc(OC)c1OC` (configuration not stated), the Potency was inconclusive: 15.8 µM [inhibitor, partial curve, poor fit].
With `CCOC(=O)C1=NN(c2ccc(OC)cc2)C(c2ccccc2)CC1=O` (configuration not stated) the Potency was inconclusive: 0.0052 µM [inhibitor, full curve, poor fit].
In the case of `CCOc1ccc(NC(=O)C2CCN(S(=O)(=O)c3ccc4c(c3)oc(=O)n4C)CC2)cc1`, the Potency is reported as “inactive”.
With `CC(C)c1nnc(NC(=O)CCC(=O)NCc2cccs2)s1` the Potency was inconclusive: 23.1 µM [activator, partial curve, poor fit].
With `Cc1ccc2nc(Nc3ccccc3)c(C=O)c(=O)n2c1` the Potency was “inactive”.
In the case of `Cc1ccc(N2CCCn3c2cc(C)c(C#N)c3=O)cc1C`, the Potency is reported as inconclusive: 0.651 µM [inhibitor, full curve, poor fit].
For `CCOC(=O)Cc1csc(NS(C)(=O)=O)n1`, the Potency was “inactive”.
For `O=C(O)c1ncn(Cc2ccc(Br)cc2)c1C(=O)O`, the Potency was inconclusive: 35.5 µM [activator, single point].
For `c1ccc(CCCNCC2COc3ccccc3O2)cc1` (configuration not stated), the Potency was inconclusive: 11.2 µM [inhibitor, partial curve, poor fit].
With `COc1ccccc1/C=C1/C(=N/O)C2CCN1CC2` the Potency was “inactive”.
For `O=C(N/N=C1\C[C@@H](O)[C@@H](O)[C@@H]2[C@@H]3C(=O)N(C4CCCCC4)C(=O)[C@@H]3CC[C@H]12)OCc1ccccc1`, the Potency was inconclusive: 0.0841 µM [inhibitor, full curve, poor fit].
In the case of `Cc1n[nH]c(=O)c2c(NC(=O)CSc3nn(-c4ccccc4)c(=S)s3)oc(C)c12`, the Potency is reported as “inactive”.
In the case of `Cc1ccc(S(=O)(=O)NC2CCCCC2)c2nsnc12`, the Potency is reported as inconclusive: 6.31 µM [inhibitor, single point].
With `Cc1cc(C(=O)COC(=O)CNS(=O)(=O)c2ccc3ccccc3c2)c(C)n1-c1ccccc1` the Potency was inconclusive: 1.78 µM [activator, partial curve, poor fit].
With `Cc1ccccc1N(C(=O)Cc1ccsc1)C(C(=O)NC1CCCCC1)c1ccc(F)cc1` (configuration not stated) the Potency was inconclusive: 6.51 µM [inhibitor, partial curve, poor fit].
In the case of `O=C1CCCc2c1sc1nc3n(c(=O)c21)CCCCC3`, the Potency is reported as inconclusive: 35.5 µM [activator, single point].
With `C/C=C/c1ccc(OCC(O)CNCC(c2ccc(OC)cc2)N(C)C)c(OC)c1` (configuration not stated) the Potency was inconclusive: 17.8 µM [inhibitor, single point].
For `COc1cc2c(cc1NC(=O)CSc1nc3cc(Cl)ccc3s1)oc1ccccc12`, the Potency was inconclusive: 35.5 µM [activator, single point].
For `O=C(NCc1ccc(F)cc1)C(c1ccc(F)cc1)N(C(=O)c1csnn1)C1CC1` (configuration not stated), the Potency was inconclusive: 11.2 µM [inhibitor, partial curve, poor fit].
For `C/C=C/c1ccc(OCCCCN2CCN(CC)CC2)c(OC)c1`, the Potency was inconclusive: 29.1 µM [inhibitor, single point].
